Data source: PubChem BioAssay AID720505 (Drosophila RNAi Screening Center, 2013)

Screen: 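Genes needed for store-operated calcium entry in fly cells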 (primary screen)
Cells: Drosophila S2R+ cells
Knock-down reagent: long dsRNA against Drosophila genes
Treatment: thapsigargin (2 µM) in calcium-free buffer to empty internal stores, then 2 mM calcium added back
Read-out: 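Stores emptied by 2 µM thapsigargin without calcium, then 2 mM calcium re-added; fluo-4 fluorescence followed by FLIPR in 384-well plates, per-well averaged endpoint, raw; two screen passes, some wells retested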
Scale: calcium signal: higher = more calcium entry after store depletion
Hit rule: 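About 1500 genes called as lowering calcium entry, by varying amounts, judged against per-plate control wells with STIM1 as positive and Rho1 as negative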
Calls: active = called as lowering calcium entry; inactive = not called
The deposit covers about 20,000 reagents; shown is an unselected part of those with a known target gene and a result. Of all reagents, about 2,100 (10%) are marked active. 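Raw plate signals without normalisation; calls rest on control-based scores that were not deposited; replicate 2 separates called from uncalled poorly.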 The numbers tell different reagents against one gene apart. Names joined by + are all predicted targets of the reagent. Not stated in the record: the amount of reagent, the time to read-out.

no.	Target gene	reagent	calcium signal, replicate 1	calcium signal, replicate 2	Call
1	CG13659	1	289	135	inactive
2	side-VII (sidestep VII)	1	126	123	inactive
3	CG31875	1	63.7	136	inactive
4	AP-1gamma (Adaptor Protein complex 1, gamma subunit)	1	67.8	95.7	inactive
5	Mrp4 (Multidrug resistance protein 4)	1	129	135	inactive
6	Alg12 (Alg12 alpha-1,6-mannosyltransferase)	1	165	111	inactive
7	TwdlG (TweedleG)	1	81.9	170	inactive
8	CG43861	1	91.7	114	inactive
9	CG43861	2	102	131	inactive
10	CG5653	1	118	56.5	inactive
11	MED30 (Mediator complex subunit 30)	1	64.1	120	active
12	MED30 (Mediator complex subunit 30)	2	120	196	inactive
13	Rep (Rab escort protein)	1	154	99.9	inactive
14	CG7215 + Prx5	1	204	144	inactive
15	CG7215 + Prx5	2	111	301	inactive
16	CG13113	1	156	112	inactive
17	BobA	1	100	116	inactive
18	CG10254	1	187	243	inactive
19	CG5767	1	124	139	inactive
20	shot (short stop)	1	86	117	inactive
21	shot (short stop)	2	124	151	inactive
22	shot (short stop)	3	216	190	inactive
23	Osi22 (Osiris 22)	1	124	128	inactive
24	Spn43Ad (Serpin 43Ad)	1	142	182	inactive
25	RpS4 (Ribosomal protein S4)	1	49.2	76.2	active
26	CG7299	1	194	177	inactive
27	CG31029	1	232	142	inactive
28	SCCRO4 (Squamous cell carcinoma-related oncogene 4)	1	69.4	131	active
29	Acp36DE (Accessory gland protein 36DE)	1	72.5	128	active
30	Cp38 (Chorion protein 38)	1	241	141	inactive
31	CG8303	1	182	130	inactive
32	fz3 (frizzled 3)	1	72.4	99.6	inactive
33	JTBR	1	106	127	inactive
34	CG7335	1	88.9	144	inactive
